# Positions count from the first letter of the chain named. Entries after “also recorded” stand apart in the source; their conditions may differ.
# B1: X69-D09: single point mutation of M142-H08 (P1′); HV-CDR3 GGLLLWFRGLKSNYFDY (antibody, V domains shown)
# VL: QDIQMTQSPSSLSAFVGDRVTITCRASQPIDNYLNWYHQKPGKAPKLLIYAASRLQSGVPSRLSGSGFGTDFTLTISSLQPEDFGNYYCQQSYTVPYTFGGGTKVEIR
# VH: EVQLLESGGGLVQPGGSLRLSCAASGFTFSAYSMIWVRQAPGKGLEWVSYIRPSGGRTTYADSVKGRFTISRDNSKNTLYLQMNSLRAEDTAVYYCARGGLLLWFRGLKSNYFDYWGQGTLVTVSSASTKGPSVFPLAPSSKS
# B2: X69-F01: single point mutation of M142-H08 (P1′); HV-CDR3 GGLLLWFRTLKSNYFDY (antibody, V domains shown)
# VL: B1 VL
# VH: B1 VH with G42S, G107T
# B3: X67-G09: single point mutation of M142-H08 (P2); HV-CDR3 GGLLLWLRELKSNYFDY (antibody, V domains shown)
# VL: B1 VL
# VH: B1 VH with F105L, G107E
# B4: X69-F05: single point mutation of M142-H08 (P1′); HV-CDR3 GGLLLWFRLLKSNYFDY (antibody, V domains shown)
# VL: B1 VL
# VH: B1 VH with G107L
# B5: X69-B08: single point mutation of M142-H08 (P1′); HV-CDR3 GGLLLWFRNLKSNYFDY (antibody, V domains shown)
# VL: B1 VL
# VH: B1 VH with G107N
# B6: X67-E04: single point mutation of M142-H08 (P2); HV-CDR3 GGLLLWDRELKSNYFDY (antibody, V domains shown)
# VL: B1 VL
# VH: B1 VH with F105D, G107E
# B7: X67-H04: single point mutation of M142-H08 (P2); HV-CDR3 GGLLLWERELKSNYFDY (antibody, V domains shown)
# VL: B1 VL
# VH: B1 VH with F105E, G107E
# B8: X69-C12: single point mutation of M142-H08 (P1′); HV-CDR3 GGLLLWFRVLKSNYFDY (antibody, V domains shown)
# VL: B1 VL
# VH: B1 VH with G107V
# B9: X68-E01: single point mutation of M142-H08 (P3); HV-CDR3 GGLLLLFRELKSNYFDY (antibody, V domains shown)
# VL: B1 VL
# VH: B1 VH with W104L, G107E
# B10: X69-E01: single point mutation of M142-H08 (P1′); HV-CDR3 GGLLLWFRWLKSNYFDY (antibody, V domains shown)
# VL: B1 VL
# VH: B1 VH with G107W
# B11: X67-F08: single point mutation of M142-H08 (P2); HV-CDR3 GGLLLWYRELKSNYFDY (antibody, V domains shown)
# VL: B1 VL
# VH: B1 VH with F105Y, G107E
# B12: X67-H01: single point mutation of M142-H08 (P2); HV-CDR3 GGLLLWWRELKSNYFDY (antibody, V domains shown)
# VL: B1 VL
# VH: B1 VH with F105W, G107E
# B13: X69-A09: single point mutation of M142-H08 (P1′); HV-CDR3 … (antibody, V domains shown)
# VL: B1 VL
# VH: B1 VH with G107S
# B14: X67-C09: single point mutation of M142-H08 (P2); HV-CDR3 GGLLLWGRELKSNYFDY (antibody, V domains shown)
# VL: B1 VL
# VH: B1 VH with F105G, G107E
# B15: X69-F09: single point mutation of M142-H08 (P1′); HV-CDR3 GGLLLWFRSLKSNYFDY (antibody, V domains shown)
# VL: B1 VL
# VH: B1 VH with G42S, G107S
# B16: X67-G05: single point mutation of M142-H08 (P2); HV-CDR3 GGLLLWRRELKSNYFDY (antibody, V domains shown)
# VL: B1 VL
# VH: B1 VH with F105R, G107E
# B17: X67-B04: single point mutation of M142-H08 (P2); HV-CDR3 GGLLLWKRELKSNYFDY (antibody, V domains shown)
# VL: B1 VL
# VH: B1 VH with F105K, G107E
# B18: X67-F10: single point mutation of M142-H08 (P2); HV-CDR3 GGLLLWTRELKSNYFDY (antibody, V domains shown)
# VL: B1 VL
# VH: B1 VH with F105T, G107E
# B19: X67-B03: single point mutation of M142-H08 (P2); HV-CDR3 GGLLLWSRELKSNYFDY (antibody, V domains shown)
# VL: B1 VL
# VH: B1 VH with F105S, G107E
# B20: X81-B01: codon optimized and germlined version of X63-G06 as a full length human IgG produced in CHO cells (antibody, chains of the INN, looked up, V domains shown)
# VH: EVQLLESGGGLVQPGGSLRLSCAASGFTFSHYIMMWVRQAPGKGLEWVSGIYSSGGITVYADSVKGRFTISRDNSKNTLYLQMNSLRAEDTAVYYCAYRRIGVPRRDEFDIWGQGTMVTVSS
# VL: DIQMTQSPSTLSASVGDRVTITCRASQSISSWLAWYQQKPGKAPKLLIYKASTLESGVPSRFSGSGSGTEFTLTISSLQPDDFATYYCQQYNTYWTFGQGTKVEIK
# modifications: IgG
# notes: codon optimized and germlined version of X63-G06 as a full length human IgG produced in CHO cells
# Assays:
# [1] = SDS-PAGE / mass spectrometry of expressed IgG: cleavage by host cell protease; conditions: expressed in 293T cells, Table 9
# CLIPS peptides of pKal = test: CLIPS epitope mapping (PEPSCAN-based ELISA); type: binding, human
Molecule,Intact as an IgG? [1],CLIPS peptides bound (CLIPS peptides of pKal)
B1,No,
B2,No,
B3,No,
B4,No,
B5,No,
B6,Yes,
B7,Yes,
B8,No,
B9,No,
B10,No,
B11,No,
B12,No,
B13,No,
B14,Yes,
B15,No,
B16,No,
B17,No,
B18,Yes,
B19,Yes,
B20,,"C2, C3, C5 and the C6; also recorded: C2 (positions 81-94), C3 (positions 101-108), C5 (positions 162-178) and C6 (positions 186-197)"

# Source: patent US20100183625A1, “Treatment of Mucositis with Kallikrein Inhibitors” (Dyax Corp., priority 2009, published 2010)
